This test deals with collagen I (coating of a 96-well collagen I coated plate) (UniProt P02454). Description: ELISA; collagen I coated 96-well plate incubated with vWF (0 to 8 ug/ml) in HBSS for four hours, washed, bound vWF detected with peroxidase-conjugated rabbit polyclonal anti-human vWF antibody; OD 450 nm, relative units; both purified. For orientation: In an ELISA, binding on a coated surface is turned into a signal by an enzyme label.

Chains of the proteins cited; added tags and fusions are not shown. Lines headed by an entry give the natural chain unless they say otherwise; changes in a name come on top. Residues count along the entry.
UniProt P02454: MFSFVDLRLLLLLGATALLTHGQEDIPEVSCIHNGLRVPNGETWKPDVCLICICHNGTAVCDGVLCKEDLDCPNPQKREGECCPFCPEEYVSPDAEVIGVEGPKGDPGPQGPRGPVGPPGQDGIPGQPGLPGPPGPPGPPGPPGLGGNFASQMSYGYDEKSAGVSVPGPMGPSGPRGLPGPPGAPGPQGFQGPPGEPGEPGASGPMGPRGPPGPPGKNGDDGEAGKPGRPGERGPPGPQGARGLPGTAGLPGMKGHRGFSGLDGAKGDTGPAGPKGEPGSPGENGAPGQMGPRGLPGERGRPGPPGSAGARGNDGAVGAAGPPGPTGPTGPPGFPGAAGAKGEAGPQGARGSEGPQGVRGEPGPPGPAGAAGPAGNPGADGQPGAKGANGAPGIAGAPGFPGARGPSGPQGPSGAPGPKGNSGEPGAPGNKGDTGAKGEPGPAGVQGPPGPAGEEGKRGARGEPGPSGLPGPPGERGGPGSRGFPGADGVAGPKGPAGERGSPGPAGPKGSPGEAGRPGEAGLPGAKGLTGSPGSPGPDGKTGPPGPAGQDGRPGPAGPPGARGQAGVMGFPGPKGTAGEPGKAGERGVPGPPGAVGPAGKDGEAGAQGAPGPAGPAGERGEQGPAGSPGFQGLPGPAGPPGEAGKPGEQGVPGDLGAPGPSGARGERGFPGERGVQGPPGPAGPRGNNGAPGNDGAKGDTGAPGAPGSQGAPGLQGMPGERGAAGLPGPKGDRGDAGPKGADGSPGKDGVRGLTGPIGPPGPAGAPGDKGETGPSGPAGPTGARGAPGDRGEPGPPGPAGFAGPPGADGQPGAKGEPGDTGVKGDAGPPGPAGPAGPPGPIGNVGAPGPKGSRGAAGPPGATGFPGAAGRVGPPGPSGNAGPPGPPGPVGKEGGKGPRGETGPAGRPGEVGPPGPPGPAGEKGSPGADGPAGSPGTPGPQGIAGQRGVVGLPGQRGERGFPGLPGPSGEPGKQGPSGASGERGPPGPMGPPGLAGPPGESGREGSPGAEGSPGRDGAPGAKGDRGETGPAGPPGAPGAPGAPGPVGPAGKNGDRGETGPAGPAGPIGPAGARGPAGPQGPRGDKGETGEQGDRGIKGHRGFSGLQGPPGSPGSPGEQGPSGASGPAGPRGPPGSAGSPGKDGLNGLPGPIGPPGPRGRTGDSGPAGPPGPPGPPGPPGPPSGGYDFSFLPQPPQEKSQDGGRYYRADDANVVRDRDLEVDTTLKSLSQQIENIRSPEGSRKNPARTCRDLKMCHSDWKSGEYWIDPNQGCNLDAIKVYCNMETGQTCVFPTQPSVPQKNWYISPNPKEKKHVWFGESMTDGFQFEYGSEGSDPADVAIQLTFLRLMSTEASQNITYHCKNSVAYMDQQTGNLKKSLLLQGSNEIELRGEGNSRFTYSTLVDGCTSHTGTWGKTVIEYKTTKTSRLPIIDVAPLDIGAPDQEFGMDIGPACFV
UniProt P04275, residues 764-2813: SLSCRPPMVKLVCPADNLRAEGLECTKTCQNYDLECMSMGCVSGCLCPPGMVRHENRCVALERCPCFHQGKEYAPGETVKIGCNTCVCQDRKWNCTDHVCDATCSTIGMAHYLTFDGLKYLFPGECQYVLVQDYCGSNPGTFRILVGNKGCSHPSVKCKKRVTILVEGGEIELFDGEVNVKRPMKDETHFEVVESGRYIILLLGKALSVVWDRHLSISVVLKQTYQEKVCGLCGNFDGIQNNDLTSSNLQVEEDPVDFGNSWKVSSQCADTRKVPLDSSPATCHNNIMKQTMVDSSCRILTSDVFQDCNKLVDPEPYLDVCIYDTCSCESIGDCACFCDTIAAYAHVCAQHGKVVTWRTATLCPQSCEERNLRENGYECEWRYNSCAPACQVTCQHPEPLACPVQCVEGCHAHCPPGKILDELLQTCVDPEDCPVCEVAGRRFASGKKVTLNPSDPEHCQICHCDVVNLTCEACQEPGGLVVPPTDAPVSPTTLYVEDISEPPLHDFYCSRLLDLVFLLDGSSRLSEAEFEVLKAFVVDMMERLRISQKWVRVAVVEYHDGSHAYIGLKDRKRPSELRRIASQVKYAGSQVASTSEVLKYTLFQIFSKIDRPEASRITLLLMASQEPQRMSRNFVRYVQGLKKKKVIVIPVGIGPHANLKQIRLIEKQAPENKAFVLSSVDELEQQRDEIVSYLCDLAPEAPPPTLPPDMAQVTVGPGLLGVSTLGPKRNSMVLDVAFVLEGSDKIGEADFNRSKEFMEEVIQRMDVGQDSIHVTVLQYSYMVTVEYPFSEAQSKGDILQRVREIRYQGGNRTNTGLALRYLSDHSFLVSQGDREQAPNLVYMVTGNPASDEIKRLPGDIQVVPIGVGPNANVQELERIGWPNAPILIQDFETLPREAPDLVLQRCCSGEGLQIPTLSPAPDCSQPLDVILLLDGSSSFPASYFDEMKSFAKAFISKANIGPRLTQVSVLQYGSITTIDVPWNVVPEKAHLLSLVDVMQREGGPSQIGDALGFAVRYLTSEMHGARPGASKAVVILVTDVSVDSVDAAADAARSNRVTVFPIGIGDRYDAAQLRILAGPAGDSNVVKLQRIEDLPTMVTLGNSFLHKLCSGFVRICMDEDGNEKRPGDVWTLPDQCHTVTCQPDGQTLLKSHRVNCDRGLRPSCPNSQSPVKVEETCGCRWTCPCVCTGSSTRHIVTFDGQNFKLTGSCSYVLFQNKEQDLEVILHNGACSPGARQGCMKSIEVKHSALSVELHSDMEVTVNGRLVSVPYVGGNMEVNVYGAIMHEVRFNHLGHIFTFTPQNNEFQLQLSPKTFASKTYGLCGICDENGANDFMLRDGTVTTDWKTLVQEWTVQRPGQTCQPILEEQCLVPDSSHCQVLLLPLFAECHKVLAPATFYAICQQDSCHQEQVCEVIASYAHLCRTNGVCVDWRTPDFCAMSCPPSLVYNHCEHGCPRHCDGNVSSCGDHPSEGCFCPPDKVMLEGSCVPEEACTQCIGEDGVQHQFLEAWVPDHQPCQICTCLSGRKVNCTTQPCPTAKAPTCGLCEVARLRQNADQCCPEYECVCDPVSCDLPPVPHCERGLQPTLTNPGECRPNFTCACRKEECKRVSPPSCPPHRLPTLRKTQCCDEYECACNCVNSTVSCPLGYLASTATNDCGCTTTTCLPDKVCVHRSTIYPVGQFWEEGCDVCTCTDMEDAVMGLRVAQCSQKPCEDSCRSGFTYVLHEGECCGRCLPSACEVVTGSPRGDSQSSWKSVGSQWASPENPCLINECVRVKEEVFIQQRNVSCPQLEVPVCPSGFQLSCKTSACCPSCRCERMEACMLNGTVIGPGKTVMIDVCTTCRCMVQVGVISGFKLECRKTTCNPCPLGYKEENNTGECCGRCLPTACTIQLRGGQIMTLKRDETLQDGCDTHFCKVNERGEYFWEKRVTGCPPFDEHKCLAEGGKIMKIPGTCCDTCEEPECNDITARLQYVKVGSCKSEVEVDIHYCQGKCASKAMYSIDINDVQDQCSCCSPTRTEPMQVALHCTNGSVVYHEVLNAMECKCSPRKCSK

The results in this text go back to publication PMC3025437.

These are yes or no findings as the source states them, for the method shown. Some entries that bind do so weakly or less than the wild type.

For “Human vWF-Factor VIII free (from UniProt P04275 764-2813)”, the binding result is “binds”.
